Results: PubChem BioAssay AID540276 (National Center for Advancing Translational Sciences (NCATS), 2011)
Where “and” joins values, the source holds several entries; their conditions need not be identical. Identical values can stand only once. Out of some 300,000 compounds screened, about 5,400 (1.8%) were called active. This list was built around the results that the source calls inconclusive (neither active nor inactive); the mix of calls is not that of the screen. The call rests on the fitted dose curve; tested in HEK293 cells. Potencies beside an inconclusive call are fits to weak or partial responses and may not hold up.

Experiment: qHTS for inhibitors of binding or entry into cells for Marburg Virus
Details: Marburg virus pseudotyped entry inhibition, cell reporter; activity change, negative = inhibition: at 37.8 µM (top of the series) unless noted
On the % scale 0 is the no-effect control and ±100 the full control effect; potency means the concentration at half of the fitted maximal effect.

| SMILES | Potency | activity change, negative = inhibition |
| --- | --- | --- |
| CCc1cc2c(nc1CC)CCN(CC/C(C)=N/OC[C@@H](O)[C@@H]1O[C@@H]3OC(C)(C)O[C@@H]3[C@H]1O)C2 | inactive |  |
| Cc1cccn2c(=O)c3cc(C(=O)NCc4ccco4)c(=N)n(C4CCCCC4)c3nc12 | inconclusive: 22.4 µM [inhibitor, partial curve, poor fit] |  |
| COc1ccc(CCn2c(-c3ccco3)nc3ccccc3c2=O)cc1OC | inconclusive: 12.6 µM [inhibitor, partial curve, poor fit] |  |
| CN(C)CCCN(C(=O)c1ccc2ccccc2c1)c1nc2cc3c(cc2s1)OCO3 | inconclusive: 22.4 µM [inhibitor, single point] |  |
| COc1ccc(-n2c(=O)c3c4c(sc3n(CC(=O)NCc3ccco3)c2=O)CCC4)c(OC)c1 | inactive |  |
| O=C(NCCc1nnc2ccc(N3CCCC3)nn12)c1ccccc1 | inconclusive: 35.5 µM [activator, single point] |  |
| CCc1ccccc1Nc1nc(N)nc(COC(=O)CCC(=O)c2ccc(F)cc2)n1 | inconclusive: 17.8 µM [inhibitor, single point] |  |
| CC1(c2ccc(OC(F)F)cc2)NC(=O)N(CC(=O)Nc2ccc3[nH]c(=O)[nH]c3c2)C1=O (stereo not given) | inactive |  |
| COc1cc(OC)c(OC)cc1CNC(=O)c1cccc(S(=O)(=O)N2CCc3ccccc3C2)c1 | inconclusive: 1.26 µM [inhibitor, full curve] |  |
| Cc1cc(N2CCN(S(=O)(=O)c3ccccc3)CC2)nc2c(C)cccc12 | inconclusive: 11.2 µM [inhibitor, partial curve, poor fit] |  |
| CCCCc1nc2cc(C(=O)NCCc3c(C)n[nH]c3C)ccc2o1 | inactive |  |
| Cc1cc([N+](=O)[O-])ccc1N=Nc1c(N)[nH]n(-c2ccccc2)c1=O | inactive |  |
| COc1ccc(N(C)C(=O)c2cc3c(s2)-c2ccccc2S(=O)(=O)C3)cc1 | inconclusive: 35.5 µM [inhibitor, single point] |  |
| O=C(NN=Cc1cccc2ccccc12)C(=O)NN=Cc1cccc2ccccc12 | inconclusive: 11.2 µM [inhibitor, partial curve] |  |
| Cc1ccc(S(=O)(=O)N(CC(=O)N2CCc3ccccc3C2)c2ccc(Cl)c(Cl)c2)cc1 | inconclusive: 1.41 µM [activator, partial curve, poor fit] |  |
| Clc1ccc2[nH]c3c(N4CCC5(CC4)OCCO5)ncnc3c2c1 | active: 10 µM |  |
| Cc1onc(C(=O)Nc2cccnc2Cl)c1[N+](=O)[O-] | inactive |  |
| Nc1ccccc1SCc1c(Cl)cccc1Cl | inactive |  |
| CCCCOc1ccc(CSC(=N)N)cc1Cl | inconclusive: 25.1 µM [inhibitor, single point] |  |
| Cc1ccccc1N(C(=O)CCCC(=O)Nc1ccccn1)C(C(=O)NC1CCCC1)c1ccc(O)cc1 (stereo not given) | inactive |  |
| COCC(C)n1c(C)cc(C(=O)COc2ccc(N(C)S(=O)(=O)c3ccc(NC(C)=O)cc3)cc2)c1C (stereo not given) | inconclusive: 28.2 µM [inhibitor, single point] |  |
| COc1cccc(NC(=O)COC(=O)C2C3CC4OC(=O)C2C4C3)c1 (stereo not given) | inactive |  |

| SMILES | Potency | activity change, negative = inhibition |
| --- | --- | --- |
| C/C=C/Cn1c(N(C)Cc2ccccc2)nc2c1c(=O)[nH]c(=O)n2C | inconclusive: 5.17 µM [inhibitor, partial curve, poor fit] |  |
| CSc1ccccc1OC1CCN(Cc2ccccc2)CC1 | inconclusive: 20.6 µM [inhibitor, partial curve, poor fit] |  |
| O=C(Cn1c(=O)n(-c2ccccc2)c(=O)c2c3c(sc21)CCC3)c1ccc(Br)cc1 | inconclusive: 8.91 µM [inhibitor, partial curve, poor fit] |  |
| CCOc1ccc(NC(=O)C2CC3CCC2C3)cc1 (stereo not given) | inconclusive: 31.6 µM [activator, single point] |  |
| COc1ccccc1NC(=O)COc1ccc(/C=N/NC(=O)CSCc2ccc(Cl)cc2)cc1 | inconclusive: 4.47 µM [activator, full curve, poor fit] |  |
| O=C(Nc1nnc(CCN2CCOCC2)s1)c1ccccc1 | inconclusive: 29.1 µM [activator, partial curve, poor fit] |  |
| O=C(NCC(=O)N(c1ccccc1F)C(C(=O)NCC1CCCO1)c1ccccc1)c1ccco1 (stereo not given) | inactive |  |
| CCOC(=O)[C@@H](CC(=O)O)N1CCCCC1 | inactive |  |
| CCOC(=O)c1c(C)oc2ccc(N(C(=O)c3ccncc3)S(=O)(=O)c3ccc(F)cc3C)cc12 | inconclusive: 15.8 µM [inhibitor, single point] |  |
| CC(C)SCC(=O)Nc1ncc2c(n1)-c1ccccc1CC2 | inactive |  |
| Cc1ccc2nc(-c3ccc(Cl)c(NC(=O)COc4ccc([N+](=O)[O-])cc4)c3)oc2c1 | inconclusive: 2 µM [activator, partial curve, poor fit] |  |
| CC(C)OP(=O)(OC(C)C)C(C)NC(=O)Cc1ccccc1 (stereo not given) | inactive |  |
| Cc1ccc(N2C(=O)C(Cl)=C(N3CCCCCC3)C2=O)c(C)c1 | inconclusive: 12.6 µM [inhibitor, partial curve, poor fit] |  |
| CN(C(=O)COC(=O)c1ccc(Cl)s1)C1(C#N)CCCCC1 | inactive |  |
| CCc1cccc(C)c1NC(=O)CSc1nnc(-c2cc3cc(Br)ccc3o2)n1CC | inconclusive: 18.3 µM [inhibitor, single point] |  |
| Cn1c(COc2ccccc2)nnc1SCC(=O)c1cccc([N+](=O)[O-])c1 | inactive |  |
| COc1ccc(NC(=O)Cn2nnc(C(=O)Nc3ccccc3C)c2N)cc1 |  | inconclusive: 3.53% [activator] [at 46.1 µM] |
| COc1cccc(CN2CCC(C(=O)N3CCN(c4ccccc4F)CC3)CC2)c1OC | inconclusive: 0.259 µM [inhibitor, full curve, poor fit] |  |
| CC(C)(C)c1cc(NC(=O)c2cccc(S(=O)(=O)N3CCOCC3)c2)no1 | inconclusive: 5.01 µM [activator, partial curve, poor fit] |  |
| CC(=O)c1cccc(NC(=O)Cn2cnc(S(=O)(=O)N3CCOCC3)c2)c1 | inconclusive: 0.708 µM [activator, full curve, poor fit] |  |
| COc1cc2c(cc1OC)CN(CCC(=O)c1ccc(Br)cc1)CC2 | inconclusive: 15.8 µM [inhibitor, partial curve, poor fit] |  |
| CCCCOC(=O)c1ccc(NC(=O)c2ccc3c(c2)CCCN3S(C)(=O)=O)cc1 | inconclusive: 35.5 µM [inhibitor, partial curve, poor fit] |  |

| SMILES | Potency | activity change, negative = inhibition |
| --- | --- | --- |
| O=C(CN(CCc1ccccc1)C(=O)Cn1nnc(-c2cccs2)n1)NCc1ccco1 | inactive |  |
| Cc1onc(-c2ccccc2Cl)c1C(N)=O | inconclusive: 11.2 µM [activator, partial curve, poor fit] |  |
| OCCN1CCN(c2nc(N3CCCCC3)nc(N3CCCCC3)n2)CC1 | inconclusive: 29.1 µM [inhibitor, single point] |  |
| COC(=O)C12CCC3(SCCS3)C(C(=O)OC)(CCC13SCCS3)C2 | inconclusive: 1.26 µM [inhibitor, single point] |  |
| Cc1ccc(NC(=O)C2CCN(S(=O)(=O)c3ccc4c(c3)CCCC(=O)N4)CC2)c(Br)c1 | inactive |  |
| Cc1ccc(NC(=O)CN2CCCCCC2)cc1Br | inconclusive: 35.5 µM [inhibitor, single point] |  |
| CC(C)(C)c1csc(NC(=O)c2ccc(Cl)s2)n1 | inactive and inconclusive: 20 µM [inhibitor, partial curve, poor fit] |  |
| CC(C)(C)NS(=O)(=O)c1ccc2c(c1)oc(=O)c1cc(S(=O)(=O)NC(C)(C)C)ccc12 | inconclusive: 18.3 µM [activator, partial curve, poor fit] |  |
| Cc1cc(C(=O)Nc2sc(C)c(-c3ccc(F)cc3)c2C(N)=O)no1 | inconclusive: 1.26 µM [activator, single point] |  |
| COc1ccc(C(=O)N2CCN(CCNC(=O)C(=O)Nc3ccc(Br)cc3)CC2)cc1 | inconclusive: 11.2 µM [inhibitor, partial curve, poor fit] |  |
| COc1ccc(/C=N\NC(=O)c2ccc([N+](=O)[O-])c(C)c2)cc1COc1ccccc1C(N)=O | inconclusive: 35.5 µM [inhibitor, single point] |  |
| CN(c1cnn(-c2ccccc2)c(=O)c1Cl)n1cccc1 | inconclusive: 11.2 µM [activator, partial curve] |  |
| COc1ccc(Cl)cc1C(=O)OCC(=O)N(CC(C)C)c1c(N)n(Cc2ccccc2)c(=O)[nH]c1=O | inconclusive: 0.141 µM [activator, full curve, poor fit] |  |
| Cc1oc2ncnc(N)c2c1C | inactive |  |
| C/C(=N\NS(=O)(=O)c1ccccc1)c1ccc2c(c1)OCO2 | inactive |  |
| CCC/C(C)=N/NC(=O)c1ccccc1O | inactive |  |
| CCOc1ccccc1CNCc1ccc(C(=O)O)cc1 | inconclusive: 0.501 µM [activator, full curve, poor fit] |  |
| CCCCNS(=O)(=O)c1ccc(NC(=O)c2c(-c3ccccc3)noc2C)cc1 | inconclusive: 14.1 µM [inhibitor, partial curve, poor fit] |  |
| CC(C)(C)NCC(O)c1cc(O)cc(O)c1 (stereo not given) | inconclusive: 17.8 µM [activator, single point] and inconclusive: 730 nM [activator, full curve, poor fit] |  |
| CC(C)(C)C(O)CN1CCCC1 (stereo not given) | inconclusive: 8.91 µM [activator, partial curve, poor fit] |  |
| O=C1Nc2ccccc2C12OCC(COc1ccc(Cl)cc1)O2 (stereo not given) | inactive |  |
